Measurements from the supplement of paper PMC7661543.
Differences between knockout arms are mostly noise.

System: HCC-38
Assay: relative cell number vs DMSO control (72 h) (% of DMSO); higher = less growth inhibition (more cells)
Procedure: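 QMAP-Seq: a pool of 5 breast cancer cell lines (ZR-75-1, SKBR3, HCC-38, MDA-MB-231, BT-20), each carrying 12 doxycycline-inducible Cas9 sgRNA perturbations (11 knockouts plus non-targeting sgNT), was treated with compounds for 72 h at four 10-fold doses (10 nM-10 uM or 1 nM-1 uM range). Barcodes were amplified and sequenced, and cell number was interpolated from 293T spike-in standard curves. The result is expressed as % of the median of DMSO wells. Two biological replicates.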

C=CCn1c(=O)c2cnc(Nc3ccc(N4CCN(C)CC4)cc3)nc2n1-c1cccc(C(C)(C)O)n1 [MK1775]
Conditions | relative cell number
sgRNA knockout: sgATF3, 10 nM | 95.9
sgRNA knockout: sgATF3, 100 nM | 75.8
sgRNA knockout: sgATF3, 1000 nM | 35.44
sgRNA knockout: sgATF3, 10000 nM | 25.7
sgRNA knockout: sgATF4, 10 nM | 83.4
sgRNA knockout: sgATF4, 100 nM | 74.3
sgRNA knockout: sgATF4, 1000 nM | 33.1
sgRNA knockout: sgATF4, 10000 nM | 26.51
sgRNA knockout: sgATF6, 10 nM | 99.5
sgRNA knockout: sgATF6, 100 nM | 75.9
sgRNA knockout: sgATF6, 1000 nM | 28.1
sgRNA knockout: sgATF6, 10000 nM | 27.4
sgRNA knockout: sgATG7, 10 nM | 94.8
sgRNA knockout: sgATG7, 100 nM | 77.7
sgRNA knockout: sgATG7, 1000 nM | 34.1
sgRNA knockout: sgATG7, 10000 nM | 24.6
sgRNA knockout: sgERN1, 10 nM | 92.8
sgRNA knockout: sgERN1, 100 nM | 81.3
sgRNA knockout: sgERN1, 1000 nM | 32.1
sgRNA knockout: sgERN1, 10000 nM | 30.8
sgRNA knockout: sgHSF1, 10 nM | 94.7
sgRNA knockout: sgHSF1, 100 nM | 67.7
sgRNA knockout: sgHSF1, 1000 nM | 34.3
sgRNA knockout: sgHSF1, 10000 nM | 23.5
sgRNA knockout: sgHSF2, 10 nM | 91.5
sgRNA knockout: sgHSF2, 100 nM | 77.8
sgRNA knockout: sgHSF2, 1000 nM | 32.8
sgRNA knockout: sgHSF2, 10000 nM | 28.6
sgRNA knockout: sgKEAP1, 10 nM | 92.9
sgRNA knockout: sgKEAP1, 100 nM | 80.1
sgRNA knockout: sgKEAP1, 1000 nM | 35.6
sgRNA knockout: sgKEAP1, 10000 nM | 28.9
sgRNA knockout: sgNFE2L2, 10 nM | 82.8
sgRNA knockout: sgNFE2L2, 100 nM | 70.7
sgRNA knockout: sgNFE2L2, 1000 nM | 33.25
sgRNA knockout: sgNFE2L2, 10000 nM | 20.8
sgRNA knockout: sgSLC35F2, 10 nM | 91.5
sgRNA knockout: sgSLC35F2, 100 nM | 73.23
sgRNA knockout: sgSLC35F2, 1000 nM | 34.7
sgRNA knockout: sgSLC35F2, 10000 nM | 29.5
sgRNA knockout: sgXBP1, 10 nM | 84.8
sgRNA knockout: sgXBP1, 100 nM | 65
sgRNA knockout: sgXBP1, 1000 nM | 33.3
sgRNA knockout: sgXBP1, 10000 nM | 32.9

CN(Cc1cnc2nc(N)nc(N)c2n1)c1ccc(C(=O)N[C@@H](CCC(=O)O)C(=O)O)cc1 [Methotrexate]
Conditions | relative cell number
sgRNA knockout: sgATF3, 10 nM | 103
sgRNA knockout: sgATF3, 100 nM | 55.4
sgRNA knockout: sgATF3, 1000 nM | 38.2
sgRNA knockout: sgATF3, 10000 nM | 33.6
sgRNA knockout: sgATF4, 10 nM | 92.9
sgRNA knockout: sgATF4, 100 nM | 55.78
sgRNA knockout: sgATF4, 1000 nM | 43.1
sgRNA knockout: sgATF4, 10000 nM | 29.7
sgRNA knockout: sgATF6, 10 nM | 89.7
sgRNA knockout: sgATF6, 100 nM | 60.595
sgRNA knockout: sgATF6, 1000 nM | 43.57
sgRNA knockout: sgATF6, 10000 nM | 36.5
sgRNA knockout: sgATG7, 10 nM | 105
sgRNA knockout: sgATG7, 100 nM | 55.3
sgRNA knockout: sgATG7, 1000 nM | 40.2
sgRNA knockout: sgATG7, 10000 nM | 28.6
sgRNA knockout: sgERN1, 10 nM | 107
sgRNA knockout: sgERN1, 100 nM | 55.7
sgRNA knockout: sgERN1, 1000 nM | 40.2
sgRNA knockout: sgERN1, 10000 nM | 31.8
sgRNA knockout: sgHSF1, 10 nM | 111
sgRNA knockout: sgHSF1, 100 nM | 53.4
sgRNA knockout: sgHSF1, 1000 nM | 52.3
sgRNA knockout: sgHSF1, 10000 nM | 35.8
sgRNA knockout: sgHSF2, 10 nM | 110
sgRNA knockout: sgHSF2, 100 nM | 52
sgRNA knockout: sgHSF2, 1000 nM | 44.1
sgRNA knockout: sgHSF2, 10000 nM | 34.2
sgRNA knockout: sgKEAP1, 10 nM | 101
sgRNA knockout: sgKEAP1, 100 nM | 71
sgRNA knockout: sgKEAP1, 1000 nM | 42.2
sgRNA knockout: sgKEAP1, 10000 nM | 38.7
sgRNA knockout: sgNFE2L2, 10 nM | 100
sgRNA knockout: sgNFE2L2, 100 nM | 52.8
sgRNA knockout: sgNFE2L2, 1000 nM | 36.2
sgRNA knockout: sgNFE2L2, 10000 nM | 29.81
sgRNA knockout: sgSLC35F2, 10 nM | 101
sgRNA knockout: sgSLC35F2, 100 nM | 51.5
sgRNA knockout: sgSLC35F2, 1000 nM | 40.6
sgRNA knockout: sgSLC35F2, 10000 nM | 32
sgRNA knockout: sgXBP1, 10 nM | 97.5
sgRNA knockout: sgXBP1, 100 nM | 55.9
sgRNA knockout: sgXBP1, 1000 nM | 39.8
sgRNA knockout: sgXBP1, 10000 nM | 32.4

CC1(C)CCC(c2ccc(Cl)cc2)=C(CN2CCN(c3ccc(C(=O)NS(=O)(=O)c4ccc(N[C@H](CCN5CCOCC5)CSc5ccccc5)c(S(=O)(=O)C(F)(F)F)c4)cc3)CC2)C1 [Navitoclax]
Conditions | relative cell number
sgRNA knockout: sgATF3, 10 nM | 93.4
sgRNA knockout: sgATF3, 100 nM | 106
sgRNA knockout: sgATF3, 1000 nM | 76.1
sgRNA knockout: sgATF3, 10000 nM | 49.5
sgRNA knockout: sgATF4, 10 nM | 86.3
sgRNA knockout: sgATF4, 100 nM | 100
sgRNA knockout: sgATF4, 1000 nM | 89.5
sgRNA knockout: sgATF4, 10000 nM | 61.405
sgRNA knockout: sgATF6, 10 nM | 101
sgRNA knockout: sgATF6, 100 nM | 101
sgRNA knockout: sgATF6, 1000 nM | 86.2
sgRNA knockout: sgATF6, 10000 nM | 50.7
sgRNA knockout: sgATG7, 10 nM | 91
sgRNA knockout: sgATG7, 100 nM | 101
sgRNA knockout: sgATG7, 1000 nM | 68.9
sgRNA knockout: sgATG7, 10000 nM | 46.1
sgRNA knockout: sgERN1, 10 nM | 90.2
sgRNA knockout: sgERN1, 100 nM | 103.4
sgRNA knockout: sgERN1, 1000 nM | 77.6
sgRNA knockout: sgERN1, 10000 nM | 49.6
sgRNA knockout: sgHSF1, 10 nM | 102
sgRNA knockout: sgHSF1, 100 nM | 107
sgRNA knockout: sgHSF1, 1000 nM | 83.8
sgRNA knockout: sgHSF1, 10000 nM | 47
sgRNA knockout: sgHSF2, 10 nM | 98.6
sgRNA knockout: sgHSF2, 100 nM | 113
sgRNA knockout: sgHSF2, 1000 nM | 69.3
sgRNA knockout: sgHSF2, 10000 nM | 57.84
sgRNA knockout: sgKEAP1, 10 nM | 95.6
sgRNA knockout: sgKEAP1, 100 nM | 110
sgRNA knockout: sgKEAP1, 1000 nM | 74.6
sgRNA knockout: sgKEAP1, 10000 nM | 39.8
sgRNA knockout: sgNFE2L2, 10 nM | 92.3
sgRNA knockout: sgNFE2L2, 100 nM | 96.3
sgRNA knockout: sgNFE2L2, 1000 nM | 86
sgRNA knockout: sgNFE2L2, 10000 nM | 51
sgRNA knockout: sgSLC35F2, 10 nM | 94.78
sgRNA knockout: sgSLC35F2, 100 nM | 105
sgRNA knockout: sgSLC35F2, 1000 nM | 74.1
sgRNA knockout: sgSLC35F2, 10000 nM | 51.5
sgRNA knockout: sgXBP1, 10 nM | 91.4
sgRNA knockout: sgXBP1, 100 nM | 100
sgRNA knockout: sgXBP1, 1000 nM | 71.5
sgRNA knockout: sgXBP1, 10000 nM | 48.3
